Out of some 1,200 compounds screened, about 60 (5%) were called active. Inconclusive results (about 1%) are left out.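 The calls were made as follows: active = Decreasing signal and fitted IC50 at most twice the top valid tested dose; inconclusive = Bad fit or a level curve showing 30 to 70% inhibition; inactive = the rest.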 This is one part of the list. Results with a measured potency or affinity are listed apart.
The compounds below were run against NAD-dependent protein deacylase sirtuin-5, mitochondrial (Homo sapiens) (UniProt Q9NXA8) (assay: SIRT5 desuccinylase inhibitors, dose response, biochemical, fluorescence imaging, cherry-pick, set 5 (AID 720591;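 also: 0% = median of neutral control wells and -100% = median of positive control wells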)). Conditions: Purified SirT5, succinyl-peptide AMC, trypsin-coupled fluorescence; at 15 µM (top of the series) unless noted.

By UniProt entry, the sequences of proteins in these tests, tags left out. Where a name states a change or a piece, a line headed by the entry shows the natural chain unless it says otherwise.
UniProt Q9NXA8: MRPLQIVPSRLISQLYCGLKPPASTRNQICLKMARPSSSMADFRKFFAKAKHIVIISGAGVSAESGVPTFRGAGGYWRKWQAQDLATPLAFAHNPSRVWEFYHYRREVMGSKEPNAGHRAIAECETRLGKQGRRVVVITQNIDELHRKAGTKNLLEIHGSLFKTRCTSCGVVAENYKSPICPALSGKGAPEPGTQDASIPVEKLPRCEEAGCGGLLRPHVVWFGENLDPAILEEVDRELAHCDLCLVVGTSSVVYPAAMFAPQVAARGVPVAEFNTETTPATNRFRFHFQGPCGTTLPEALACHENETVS

| Compound | activity change, negative = inhibition |
| --- | --- |
| O=C(C1CCCCC1)N1C[C@@H](O)[C@H](n2cc(-c3ccc(F)cc3)nn2)C[C@@H]1c1ccccc1 | inactive: -8.98% |
| O=C1NC(Cc2ccc(O)cc2)c2nc3ccc(F)cc3c(=O)n2-c2ncccc21 (stereo not drawn) | inactive: -12.6% |
| Cc1ccc(C(=O)N(C)CC(=O)Nc2ccc(Cl)c(C(F)(F)F)c2)cc1S(=O)(=O)N1CCCCC1 | inactive: -22.8% |
| Cc1nnc(SCC(=O)Nc2ncc3c(n2)CC(c2ccccc2)CC3=O)s1 (stereo not drawn) | inactive: -14% |
| CC1CN(C(=O)Nc2ccc(Br)cc2Cl)CC(C)O1 (stereo not drawn) | inactive: 11% |
| CC12CCC3c4ccc(OCC(=O)O)cc4CCC3C1CCC2=O (stereo not drawn) | inactive: -12.5% |
| CCOc1ccc(C(C(=O)NCC2CCCO2)N(Cc2cccs2)C(=O)c2snc(C(N)=O)c2N)cc1 (stereo not drawn) | inactive: -12.1% |
| CCN(CC)C(=O)[C@H]1C[C@H](CC(=O)NC(C)(C)C)C(=O)N2CCc3c([nH]c4cc(CCC(=O)N(C)C)ccc34)[C@]12C | inactive: -2.36% |
| Cc1cccc(NC(=O)Nc2ccc(OCc3ccccc3)cc2)n1 | inactive: 20.9% |
| Cc1ccc(S(=O)(=O)CC(=O)Nc2ccc3nc(C)sc3c2)cc1 | inactive: -6.72% |
| NNC(=O)c1ccccc1-n1cccc1 | inactive: 15.5% |
| Cc1nc(NC(=O)C2CC2)sc1C | inactive: -15% |
| CC1CN(CCOc2ccccc2-c2ccccc2)CC(C)O1 (stereo not drawn) | inactive: -17.6% |
| CCOC(=O)c1c(C)nc(C)c(C(=O)OCC)c1-c1ccc(OC)cc1 | inactive: 22.9% |
| Cn1c(=O)c2c(-c3ccccc3)n(-c3cccc(O)c3)cc2n(C)c1=O | inactive: -8.93% |
| CCN(C(=O)COC(=O)CNC(=O)c1ccccc1C)C1=CCCCC1 | inactive: 22.5% |
| Oc1ccc(-c2n[nH]c(C(F)(F)F)c2-c2ccccc2)c(O)c1 | inactive: -7.08% |
| Cc1ccccc1-c1noc(CNC(=O)c2ccco2)n1 | inactive: -20.4% |
| COc1cc(Cl)c(CN2CCCC(CO)(Cc3cccc(Cl)c3)C2)cc1OC (stereo not drawn) | inactive: -2.29% |
| COc1ccc(CNC(=O)c2cc(=O)c3cc(C)cc(C)c3o2)cc1 | inactive: -10.2% |
| CC(C)c1ccccc1OCC(=O)Nc1ccc2[nH]ncc2c1 | inactive: -17.4% |
| CCOC(=O)C(N)CSC1CC(=O)N(c2ccc(OCC)cc2)C1=O (stereo not drawn) | inactive: -18.2% |

| Compound | activity change, negative = inhibition |
| --- | --- |
| O=C(NCCc1ccc(Cl)cc1)C1CCC(=O)N(C2CCCCCC2)C1 (stereo not drawn) | inactive: 43.4% |
| Cc1ccc(C(=O)n2nc(-n3cccc3)c3c(C)cc(C)nc32)cc1 | inactive: 7.51% |
| COc1ccccc1N1CCN(CC(=O)Nc2ccc3c(c2)OCCO3)CC1 | inactive: -20.9% |
| O=C(CSc1nnc(NC(=O)c2ccco2)s1)Nc1cccc(F)c1 | inactive: 1.98% |
| O=C(c1cccs1)N1CCN(c2nc3c(F)cc(F)cc3s2)CC1 | inactive: 19.5% |
| CCOC(=O)n1c(=O)n(C)c2ccc(Cl)cc21 | inactive: -25.5% |
| CN(Cc1nc(-c2ccc(Cl)cc2)no1)C(=O)c1ccco1 | inactive: -32.1% |
| O=C(NCC(=O)N1CCN(C(c2ccccc2)c2ccccc2)CC1)c1ccccc1Br | inactive: -20.6% |
| CCOC(=O)c1c(C)[nH]c(C)c1C(=O)COC(=O)c1cccc(C)c1O | inactive: -9.02% |
| O=C(N[C@@H](Cc1ccccc1)C(=O)NC1CC1)c1ccc(Cl)cc1 | inactive: -20.1% |
| Cc1ccc(C(=O)N2CCCC2)cc1S(=O)(=O)Nc1cccc(C)c1C | inactive: 11.4% |
| COCCCNc1ncnc2c1sc1nc(-c3ccco3)c3c(c12)CC(C)(C)OC3 | inactive: 16.7% |
| COC(=O)c1c(-c2ccc(OC)cc2)oc2ccc(-c3cc(OC)c(OC)c(OC)c3)cc12 | inactive: 27% |
| O=C(c1ccc(F)cc1)N1CCOCC1 | inactive: 38.5% |
| CCc1noc(C)c1C(=O)OCC(=O)NCc1ccc(Cl)cc1 | inactive: 16.2% |
| COc1ccccc1OCCSc1nc2ccccc2n1CC(O)CO (stereo not drawn) | inactive: -18.9% |
| Cc1coc2c(C)c3oc(=O)c(CCC(=O)N[C@@H](C)C(=O)N[C@@H](Cc4ccccc4)C(=O)O)c(C)c3cc12 | inactive: -1.46% |
| NNC(=O)Cn1c(-c2ccccc2)cc2ccccc21 | inactive: 11.2% |
| COc1ccccc1CCNS(=O)(=O)c1cc2c3c(c1)C(C)C(=O)N3CCC2 (stereo not drawn) | inactive: -29.6% |
| CC(C)N(C(=O)[C@H]1C[C@H](CC(=O)NCc2ccco2)C(=O)N2CCc3c([nH]c4cc(CCC(=O)N(C)C)ccc34)[C@]12C)C(C)C | inactive: 3.22% |
| CCN(CC(=O)Nc1ccccc1OC)C(=O)c1cc(S(=O)(=O)N2CCCCCC2)ccc1OC | inactive: -27.9% |
| O=c1ccn(Cc2ccccc2)c2ccccc12 | inactive: 30.6% |

| Compound | activity change, negative = inhibition |
| --- | --- |
| COC(=O)[C@]1(C)N[C@H](CN(C)C(=O)c2ccccc2)[C@@H]2C(=O)N(C)C(=O)[C@@H]21 | inactive: 18.3% |
| O=C(NCc1csc(-c2cccs2)n1)Nc1ccc(F)cc1F | inactive: -5.87% |
| CCCc1cc(NCCCn2ccnc2)n2nc(C)c(-c3ccccc3)c2n1 | inactive: 4.18% |
| COCC(=O)N1CCC2CC1c1cc(Cl)ccc12 (stereo not drawn) | inactive: -32.5% |
| COc1ccc(CCNC(=O)Cn2ccc3c(OC)cccc3c2=O)cc1OC | inactive: -20% |
| CC(C)=CCN1CCN(Cc2cn(C(C)C)c3ccccc23)CC1CCO (stereo not drawn) | inactive: 18.7% |
| C[C@H]([C@H](O)c1ccccc1)N(C)C(=O)CN | inactive: -27.8% |
| COc1cc(C(=O)NCCN2CCN(C(=O)c3cc(OC)c(OC)c(OC)c3)CC2)cc(OC)c1OC | inactive: 3.49% |
| Cc1cc(C)c2nc(N3CCC(C(=O)NCC4CCCO4)CC3)sc2c1 (stereo not drawn) | inactive: -2.27% |
| CN1CCN(CC(=O)Nc2nc3ccccc3s2)CC1 | inactive: 9.4% |
| Cc1ccc(OCC(O)Cn2c(N3CCCCC3)nc3c2c(=O)[nH]c(=O)n3C)cc1 (stereo not drawn) | inactive: -4.67% |
| Cc1cccc(C)c1NC(=O)N1CCCCCCC1 | inactive: 10.8% |
| CCCCCCNC(=O)c1ccc(Br)o1 | inactive: 2.66% |
| C[C@@H]1CN([C@H](C)CO)C(=O)c2cccc(NS(=O)(=O)c3cccs3)c2O[C@H]1CN(C)Cc1ccccc1 | inactive: -27.6% |
| CC(C(=O)NCc1cccs1)N1C(=O)c2ccccc2C1=O (stereo not drawn) | inactive: 6.38% |
| CN(CC(=O)Nc1ccc(Cl)c(C(F)(F)F)c1)C(=O)c1cc(=O)c2ccccc2o1 | inactive: -22.6% |
| COc1ccccc1CNS(=O)(=O)c1ccc(Br)s1 | inactive: 3.57% |
| CC(CC(=O)Nc1ccc2c(c1)c(=O)n(C)n2-c1ccc2ccccc2c1)C(F)(F)F (stereo not drawn) | inactive: -13.6% |
| CC1c2nc3ccccc3n2C(CC(=O)NCc2ccccn2)C(=O)N1Cc1ccccc1 (stereo not drawn) | inactive: 19.5% |
| O=C(COc1ccccc1)Nc1ncn[nH]1 | inactive: -8.98% |
| CC(=O)OCC(C)n1[nH]c2ccccc2c1=O (stereo not drawn) | inactive: -31.5% |
| Cc1ccc(S(=O)(=O)N(C)C[C@H]2OCc3cn(nn3)CCCC(=O)N([C@@H](C)CO)C[C@@H]2C)cc1 | inactive: 22.2% |

Part of the list above, tab-delimited.
Compound	activity change, negative = inhibition
Cc1ccc(OCC(O)Cn2c(N3CCCCC3)nc3c2c(=O)[nH]c(=O)n3C)cc1 (stereo not drawn)	inactive: -4.67%
Cc1cccc(C)c1NC(=O)N1CCCCCCC1	inactive: 10.8%
CCCCCCNC(=O)c1ccc(Br)o1	inactive: 2.66%
C[C@@H]1CN([C@H](C)CO)C(=O)c2cccc(NS(=O)(=O)c3cccs3)c2O[C@H]1CN(C)Cc1ccccc1	inactive: -27.6%
CC(C(=O)NCc1cccs1)N1C(=O)c2ccccc2C1=O (stereo not drawn)	inactive: 6.38%
CN(CC(=O)Nc1ccc(Cl)c(C(F)(F)F)c1)C(=O)c1cc(=O)c2ccccc2o1	inactive: -22.6%
COc1ccccc1CNS(=O)(=O)c1ccc(Br)s1	inactive: 3.57%

Following part:

| Compound | activity change, negative = inhibition |
| --- | --- |
| CC1CN(Cc2ccccc2)c2nc3c(c(=O)n(CC(=O)O)c(=O)n3C)n2C1 (stereo not drawn) | inactive: 28.5% |
| CCCNC(=O)CC1C(=O)N(Cc2ccccc2)C(C)c2nc3ccccc3n21 (stereo not drawn) | inactive: -35.5% |
| CCOC(=O)c1ccc(S(=O)(=O)NC2CCC(C)CC2)cc1 (stereo not drawn) | inactive: 9.58% |
| Cc1cccc(COC[C@H](Cc2ccccc2)N2CCN(C(=O)c3cc(Cl)cc(Cl)c3)CCC2=O)c1 | inactive: -29.7% |
| Cc1ccc(CNC(=O)C2CCCN(S(=O)(=O)N3CC(C)CC(C)C3)C2)cc1 (stereo not drawn) | inactive: -20.4% |
| CCN(CCO)c1nc(N2CCCCC2)c2cnn(C)c2n1 | inactive: 4.9% |
| CC(C)(C)OC(=O)N(CCc1ccccc1)Cc1ccc(OCc2cccc(NC(=O)C3CC3)c2)cc1 | inactive: 11.2% |
| O=C(CSc1ccccc1Cl)N1CCOCC1 | inactive: -29.6% |
| COc1ccc(NC(=O)C2CCCNC2=O)cc1 (stereo not drawn) | inactive: -18.6% |
| COc1ccccc1S(=O)(=O)N(C)C[C@@H]1Oc2cc(C#CCC(C)C)ccc2S(=O)(=O)N([C@H](C)CO)C[C@@H]1C | inactive: 4.67% |
| COc1ccc(N2CC(C(=O)Nc3nc4ccc(OC)cc4s3)CC2=O)cc1 (stereo not drawn) | inactive: -3.03% |
| CN1CCN(c2nc3c(c(=O)[nH]c(=O)n3C)n2Cc2ccccc2)CC1 | inactive: 19.7% |
| CNC(=O)CSc1nnc(-c2ccco2)n1-c1cccc(OC)c1 | inactive: 0.832% |
| Cn1c(=O)[nH]c(=O)c2c1nc(N1CCNCC1)n2Cc1ccccc1 | inactive: 15.6% |
| OC[C@@H]1CN(Cc2cccs2)C[C@H](n2cnc3c(Nc4ccccc4)ncnc32)O1 | inactive: 1.28% |
| Cc1ccc(S(=O)(=O)N(C)CCCC(=O)NC(C)(C)CO)cc1 | inactive: -1.37% |
| COc1ccc(NC(=O)N(C)C[C@H]2Oc3ccc(NS(=O)(=O)c4ccc(F)cc4)cc3C(=O)N([C@H](C)CO)C[C@@H]2C)cc1 | inactive: -7.44% |
| C[C@]12c3[nH]c4ccc(Cl)cc4c3CCN1C(=O)[C@@H](CC(=O)NCc1cccc(C(F)(F)F)c1)C[C@@H]2C(=O)N1CCOCC1 | inactive: -7.88% |
| CCc1nnc(NC(=O)CCC(=O)N2CCN(c3cc(C)ccc3C)CC2)s1 | inactive: 8.84% |
| COc1cccc(CN2CC(C(=O)N(C)CC3CCOCC3)CCC2=O)c1 (stereo not drawn) | inactive: -21.3% |
| CCOc1ccc(OCC)c(NC(=O)C2CCCN(C(=O)c3ccc(Cl)cc3)C2)c1 (stereo not drawn) | inactive: -9.86% |
| C[C@H](NC(=O)c1cc2c([nH]c3ccccc32)c(-c2ccccc2)n1)C(=O)O | inactive: 32.4% |

Reference: PubChem BioAssay AID720591 (Broad Institute, 2013)
